Results: patent US20090176817A1, “Method of Treatment of Diarrhea-Predominant Irritable Bowel Syndrome in a Subject” (priority 2005, published 2009)
Some of these results come from one statement about several compounds together. For at least one compound, name, drawing or mass did not settle the structure.

Key:
[1] = Study S.241.1.107: pharmacokinetics in hepatic impairment, 8 mg TID; conditions: in vivo
cytochrome P450 enzymes = assay: CYP inhibition in human hepatic microsomes, other cytochrome P450 enzymes; conditions: any cytochrome P450 enzyme

SMILES	Decrease in exposure with hepatic impairment [1]	IC50 (cytochrome P450 enzymes) [µM]
Cc1nccn1CC1CCc2c(c3cccc4c3n2CC[C@H]4O)C1=O (stereo partly drawn) [(4R)-hydroxy cilansetron]	30-36%	> 100
Cc1nccn1CC1CCc2c(c3cccc4c3n2CC[C@@H]4O)C1=O (stereo partly drawn) [(4S)-hydroxy cilansetron]	30-36%	> 100
